Test results as given in paper PMC11099042.
Results are given in words; binding and its absence hold for the method and conditions named. Binding seen in cells or lysates may run through a third protein. Some binding calls cover weakened binding; strength is not graded here.

Protein sequences, listed by entry. Tags and fused reporters are not part of them.
UniProt P48301: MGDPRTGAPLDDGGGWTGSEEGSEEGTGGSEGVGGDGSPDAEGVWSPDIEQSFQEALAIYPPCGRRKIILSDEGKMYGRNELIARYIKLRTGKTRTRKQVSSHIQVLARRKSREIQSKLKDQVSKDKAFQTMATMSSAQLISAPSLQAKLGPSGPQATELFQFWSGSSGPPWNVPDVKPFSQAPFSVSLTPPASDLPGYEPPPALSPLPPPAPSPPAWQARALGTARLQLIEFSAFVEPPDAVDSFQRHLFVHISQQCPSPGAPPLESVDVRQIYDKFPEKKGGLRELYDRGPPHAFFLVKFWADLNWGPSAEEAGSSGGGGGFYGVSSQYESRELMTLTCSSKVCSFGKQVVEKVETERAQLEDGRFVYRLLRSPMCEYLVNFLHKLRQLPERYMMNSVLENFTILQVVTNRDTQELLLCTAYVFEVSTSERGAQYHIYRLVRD

Target: TEAD2 (UniProt P48301)
Experiment: co-IP; FLAG- and HA-tagged TEAD2 co-expressed in cells; FLAG IP on M2 magnetic beads at 4 °C for 16 h; lysis buffer 20 mM Tris-HCl pH 7.5, 0.1% Triton X-100, 300 mM KCl, 5 mM EDTA; four washes with 500 mM KCl; immunoblot

Substance: TEAD2 (from UniProt P48301 1-445)
- binding: binds
